Results deposited as PubChem BioAssay AID743454 (Peter MacCallum Cancer Centre, 2014).

Assay: 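Genes whose loss kills vorinostat-resistant colon cancer cells under vorinostat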 (primary screen)
System: human HCT116-VR colon cancer cells, selected for vorinostat resistance
Knock-down reagent: siRNA pool against human genes, 40 nM siRNA pool
Time to read-out: vorinostat for 24 h, read-out about 72 h after transfection
Conditions: vorinostat at 2.5 µM final
Detection: 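Two measures, CellTiter-Fluor viability and luminescent caspase 3/7 activity, each as fold change against same-plate mock wells, mean of duplicates, then screen-wide robust z-score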
Reading the numbers: viability robust z-score: higher = more viable cells than screen typical; caspase robust z-score: higher = more caspase 3/7 activity than screen typical
Active means: 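a knock-down is a hit when classed RV1 or RV2 for lowered viability, or CA1 or CA2 for caspase activation; those lethal without drug were dropped; hits were retested singly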
This is a random part of about 18,000 reagents tested. 450 of them (2.5%) count as active. 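Single biological run; no consistent viability z cut-off exists, so the class columns, not z-scores, define the calls.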 Entries without a mark were called inactive. Reagent sequences are not shown.

Against CEP250 (GeneID 11190) the deposit lists viability hit class no change; caspase hit class no change; viability robust z-score -0.14; caspase robust z-score -0.84. Against B3GALT5 (GeneID 10317), the values are viability hit class no change; caspase hit class no change; viability robust z-score -0.9; caspase robust z-score 3.95. Against KSR1 (GeneID 8844) the deposit lists viability hit class no change; caspase hit class no change; viability robust z-score -1.69; caspase robust z-score -0.24. LIN7A (GeneID 8825) scored viability hit class no change; caspase hit class no change; viability robust z-score 1.46; caspase robust z-score -0.88. For RPL4 (GeneID 6124), the entry reads viability hit class no change; caspase hit class no change; viability robust z-score -4.72; caspase robust z-score -1.16. With knock-down of LINC01973 (GeneID 400624), the record shows viability hit class no change; caspase hit class no change; viability robust z-score 1.72; caspase robust z-score 0.

After knock-down of RANBP17 (GeneID 64901), the screen gave viability hit class no change; caspase hit class no change; viability robust z-score -0.04; caspase robust z-score -0.62. Against RAB34 (GeneID 83871) the deposit lists viability hit class no change; caspase hit class no change; viability robust z-score -1.04; caspase robust z-score 3.01.

Part of the list above, reformatted.
gene | viability hit class | caspase hit class | viability robust z-score | caspase robust z-score
B3GALT5 (GeneID 10317) | no change | no change | -0.9 | 3.95
KSR1 (GeneID 8844) | no change | no change | -1.69 | -0.24

Continued:
Silencing of ABHD6 (GeneID 57406) resulted in: viability hit class no change; caspase hit class no change; viability robust z-score 0.68; caspase robust z-score -0.12. For HAND1 (GeneID 9421) the deposit lists viability hit class no change; caspase hit class no change; viability robust z-score 1.2; caspase robust z-score 2.73. Depletion of TTPAL (GeneID 79183) came out at: viability hit class no change; caspase hit class no change; viability robust z-score 2.19; caspase robust z-score 1.54. After knock-down of WBP2NL (GeneID 164684) the results were viability hit class no change; caspase hit class no change; viability robust z-score 0.59; caspase robust z-score 0.51. Knock-down of PRSS35 (GeneID 167681) resulted in: viability hit class no change; caspase hit class no change; viability robust z-score 0.08; caspase robust z-score 0.12. Against MPP2 (GeneID 4355), the entry reads viability hit class no change; caspase hit class no change; viability robust z-score -0.18; caspase robust z-score 1.84.

LCN10 (GeneID 414332) showed viability hit class no change; caspase hit class no change; viability robust z-score 1.54; caspase robust z-score 0.73. Depletion of RNF151 (GeneID 146310) gave: viability hit class no change; caspase hit class no change; viability robust z-score -1.23; caspase robust z-score 3.62. After knock-down of FBXO6 (GeneID 26270) the results were viability hit class no change; caspase hit class no change; viability robust z-score -1.25; caspase robust z-score 2.58. WRNIP1 (GeneID 56897) scored viability hit class no change; caspase hit class no change; viability robust z-score 0.13; caspase robust z-score -0.75. With knock-down of C2CD2 (GeneID 25966), the screen gave viability hit class no change; caspase hit class no change; viability robust z-score 0.87; caspase robust z-score 1.52. After knock-down of POLDIP3 (GeneID 84271), the screen gave viability hit class no change; caspase hit class no change; viability robust z-score 0.82; caspase robust z-score 0.29.

Knock-down of COL23A1 (GeneID 91522) resulted in: viability hit class no change; caspase hit class no change; viability robust z-score 0.28; caspase robust z-score -1.25.
